No constants are given. Whether binding was seen depends on the method and setting. Binding seen in cells or lysates may run through a third protein. A yes stands for co-enrichment or nearness to the bait. Other partners may have been found.

Chains of the proteins cited; added tags and fusions are not shown.
UniProt P20263: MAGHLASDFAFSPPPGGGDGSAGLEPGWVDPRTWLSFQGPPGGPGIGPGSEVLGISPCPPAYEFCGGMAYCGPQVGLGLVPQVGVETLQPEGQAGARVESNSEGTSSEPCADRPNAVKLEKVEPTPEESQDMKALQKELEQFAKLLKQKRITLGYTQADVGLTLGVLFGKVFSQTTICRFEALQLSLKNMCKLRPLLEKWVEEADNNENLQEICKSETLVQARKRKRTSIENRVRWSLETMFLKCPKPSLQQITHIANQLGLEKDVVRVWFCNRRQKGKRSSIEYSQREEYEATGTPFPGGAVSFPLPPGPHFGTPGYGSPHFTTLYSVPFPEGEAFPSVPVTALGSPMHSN

Assay [1] addresses Oct4 (Pou5f1) (mouse (endogenous in 46C ESCs)) (UniProt P20263). The assay can be described thus: affinity purification with mass spectrometry; immunoprecipitation of endogenous Oct4 (antibody sc-8628 cross-linked to protein G Sepharose) from 1 ml 46C ESC nuclear extract, Benzonase, washes with C-100*, 4°C, boiled in SDS-loading dye; control goat IgG.
Assay [2] addresses FLAG-Oct4 (F-Oct4) (mouse) (UniProt P20263). In words: affinity purification with mass spectrometry; FLAG-affinity purification of F-Oct4 from 1.5 ml ESC nuclear extract on anti-FLAG M2 agarose, buffer C-100 (20 mM HEPES pH 7.6, 100 mM KCl), washes with 0.02% NP-40, Benzonase, 4°C, FLAG peptide elution; three purifications; control ZHBTc4 extract.

B1: Foxp4 (protein, UniProt Q9DBY0 1-795)
chain: MMVESASETIRSAPSGQNGVGSLSAQADGGGGAGTAGTAPAAGRDASGREAASGGADSNGEMSPAELLHFQQQQALQVARQFLLQQASSLNSPGNNDSKQSASAVQVPVSVAMMSQQMLTPQQMQQILSPPQLQALLQQQQALMLQQLQEYYKKQQEQLHLQLLTQQQAGKQQPKEALGNKQLAFQQQLLQMQQLQQQHLLNLQRQGLVSLQPSQASGPLQALPQAVCPTDLPQLWKGEGAPGQPAEDSGRQEGLDLASTAVTATSFASPPKVSPPLSHHPLPNGQPTVLTSRRDSSSHEETPSSHPLYGHGECKWPGCETLCEDLGQFIKHLNTEHALDDRSTAQCRVQMQVVQQLEIQLAKESERLQAMMAHLHMRPSEPKPFSQPVTVSADPFPDGLVHPPTSAAAPVTPLRPPGLGSASLHSGGPARRRSNDKFCSPISSELAQNHEFYKNADVRPPFTYASLIRQAILETPDRQLTLNEIYNWFTRMFAYFRRNTATWKNAVRHNLSLHKCFVRVENVKGAVWTVDEREYQKRRPPKMTGSPTLVKNMISGLSYGALNASYQAALAESSFPLLSNPGMLNPGSASSLLPLSQEDLGVPGEPLPSNGSSSPPRLSPPQYSHQIQVKEEPAEAEEDRRPGPPLGAPNPSTVGPPEDRDLEEDLGGEDMPSQPCPLIPGWKPSLLHLSYCVKPKFTVSVGSKTPSSPLPPPPRVQGSYSLPPCSYLAYGDMRGQNPAPSPGLLSGVGGGLFRCLHRTKSPSLPGVWILAAELETMRFHRPPMGDPQPKTADWV
As for B1, the binding result in assay [1] and in assay [2] was “binds” in each case.

B2: L1td1 (protein, UniProt Q587J6 1-782)
chain: MSGVQSKAARLQKERKEKLSADRERKTATSLCLKHSEVPASMMKQFNALMEMQEVMFAEMRETYKNDIKEMLLKRTAPWVKHLEERIGQQEGDAISERPKPGEKVEELSSGTDEDTENLTVRSKKGKQDKAKPLNSSHVLKSSLERGGEALRGEHGRCGESSSLVDWKNANEKPAREASCQSEENRLKAPKESPPEGGAGATLRLAADFSAATLDVGRQWSQVFRLLKEKELEPELQCSVKLAFKCDGEANVFSDLHSLRQFTSRKPFLRELLKDVFPQNEGGRRNELRERLGKTLGDTKHEARRIASDSLSFLFIKEVEVASPEVKTYKEETLDRKNKGTLKKQEGEEEEISETQGEETSEGETSELGEEEGSESEEEEESSESEEEEESSESAEEIGFISLVVDSESEEEVNRKTASQTKKKETFHGLKELAFSYLVWDSKKKKLVRCQEGGAAAASTQRIGMPCLTLYLTSPSESLGAGSDGPKSHSCTKLSALSQVTPLLTNIEKGRYKVPQTEEPTAKEADLILETEENFKRGVISVIRQMQREVDKIKNIYVSDVLNMKSSLDDLNSLACTIEARVSEQEDAVEGLTKDTMQLAREIVDKERLREREDRFRSSNIRVIGIPEKENRENGAVDIIKEVIEENFAELEDQSLEIVSAHRVPNSVDEHRLTPRHILVKFGSASDKQRVLKASRAKQEITYRGSKIRLTADLSPGTIDARSQWCGIIKILQDEGFQPRILYPAKLAFDFKGKTKIFFDIEEFKKFISDIPYLKDLLNNIH
As for B2, the binding result in assay [1] and in assay [2] was “binds” throughout.

B3: Arid3b (protein, UniProt Q9Z1N7 1-568)
chain: MEPLQQQQQQQQQKQPQQPLLQMDAREKQGPQTRESQFLYASKLGTQPALLSITPGRPSGSSVLGPLARVPPATPVARMSEQSNVNSEPEEEEGGLEDEDGDDDVAEVAEKEAQAASKYFHMQKVTRQEPRATPMSSLLPVPGLSPQGQQTKEDHTKDASKAPPSVPTAGQPSWSLDEQLKQNGALAWSDDADGGRGREISRDFAKLYELDGDPERKEFLDDLFIFMQKRGTPINRIPIMAKQILDLYMLYKLVTEKGGLVEIINKKIWREITKGLNLPTSITSAAFTLRTQYMKYLYAYECEKKALSSPAELQAAIDGNRREGRRPSYSSSLFGYSPAAAAAAAAAAAAAAASAASAGTPALLSSPKIRFSILGLGSSSGTSASSPRIPPASTLRKGDGVPVPVPNRLAVSGTLAGQQAGNRPGPLEHLRERLESGEPPEKKASRLSEEEQRLVQQAFQRNLFSMARQLPMKIRINGREDRAEPSAPALNLTTSNIGSINMSVDIDGTTYTGVLFAQKPVVHLIAGSTPQSIGSSASSSNSSSSHCSPSPTSSRGTPSAEPSTSWSL
For B3, the binding result in assay [1] and in assay [2] was “binds” throughout.

The values above are taken from publication PMC2860243.
